# The name of at least one read-out is uncertain.
# System: L1210 leukemia
# Assay: In vivo activity on L1210 leukemia of the mouse (antitumor activity T/C)
# Conditions: 3xip,q3d; dose not given; % of the control; two of 6 animals longterm survivors
# Protocol: Ascites fluid is removed from DBA2 mice (female, 18-20 g) under sterile conditions 7 days after inoculation of tumor cells. The ascites is washed three times with PBS (phosphate-buffered saline), counted and adjusted to a cell count of 10^6 in 0.2 ml of PBS.
# 10^6 cells, suspended in 0.2 ml of PBS, are then injected intraperitoneally into DBF1 mice (female, 18-20 g). 6 animals per group are used for each substance concentration and as controls.
# a) The animals are weighed on days 1 and 5 after injection of the test substance. A weight loss of more than 20% on day 5 is regarded as an indicator of a toxic effect of the substance.
# b) At the end of the experiment (death of all animals or surviving animals on day 60) the mean survival time of the animals in the particular groups is determined as long as at least 65% of the animals were still alive on day 5 of the experiment. The mean survival time is determined only for animals which die during the course of the experiment. Long-term survivors (LTS) are not included in this calculation and are reported separately.
# The antitumor activity (T/C) for the particular substance concentration is determined from the mean survival time (MSTT) in the treated groups and in the control groups (MSTC) as a percentage of the untreated controls in accordance with the following formula: [formula] […]
smiles,measurement,value
"COc1cccc2c1C(=O)c1c(O)c3c(c(O)c1C2=O)C[C@@](O)(C(=O)CO)C[C@@H]3O[C@H]1C[C@H](N)[C@H](O)[C@H](C)O1 [Adriamycin, reference compound]","T/C, L1210-leukemia in vivo",154%

# Reference: patent US5260425A, “Anthracycline derivatives having cytostatic activity” (priority 1988, dated 1993)
